In PubChem BioAssay AID651803 (National Center for Advancing Translational Sciences (NCATS), 2012) one finds activity change, negative = inhibition data, which are given here for 24 compounds.

Protein sequences, listed by entry. Tags and fused reporters are not part of them. Lines headed by an entry give the natural chain unless they say otherwise; changes in a name come on top.
UniProt P11308: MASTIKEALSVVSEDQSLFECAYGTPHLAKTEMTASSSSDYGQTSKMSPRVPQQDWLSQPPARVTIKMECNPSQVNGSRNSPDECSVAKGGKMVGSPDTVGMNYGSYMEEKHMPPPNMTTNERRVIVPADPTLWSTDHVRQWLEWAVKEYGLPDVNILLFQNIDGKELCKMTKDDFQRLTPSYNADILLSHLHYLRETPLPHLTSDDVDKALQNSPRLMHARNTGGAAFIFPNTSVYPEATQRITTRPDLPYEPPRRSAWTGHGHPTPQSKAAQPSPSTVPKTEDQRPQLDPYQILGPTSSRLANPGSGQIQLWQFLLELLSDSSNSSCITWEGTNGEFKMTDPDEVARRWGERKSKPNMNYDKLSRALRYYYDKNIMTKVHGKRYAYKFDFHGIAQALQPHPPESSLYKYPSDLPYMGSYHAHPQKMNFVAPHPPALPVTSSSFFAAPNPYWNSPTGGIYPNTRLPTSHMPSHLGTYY

Out of some 1,200 compounds screened, fewer than 10 were called active. The call rests on the fitted dose curve; in most records, active means well fitted curve in the direction sought with a large enough effect; inconclusive means small, poorly fitted or top-dose-only effect, or another doubt; inactive means no such curve, though single readings can be large or run the other way. The list shows a part of the results.

The target in the experiment is Transcriptional regulator ERG (Homo sapiens) (UniProt P11308). Description: qHTS for Small Molecule Inhibitors of the ERG Ets/DNA interaction: TR assay against cherry picks. Further: % of control where 0% means no effect. The following applies: ERG Ets domain-DNA fluorescence polarization, Texas red probe; at 154 µM (top of the series). The source says: The Ets family of proteins is a family of ~30 conserved transcription factors defined by the presence of an ~85 amino acid domain referred to as the Ets domain, which mediates sequence-specific DNA binding to a core DNA element GGAA/T.The Ets family member ERG has been linked to several neoplasms. […] More extensive studies of the effects of over-expression of ERG in prostate cells have recently been carried out and have shown that over-expression of ERG results in increased invasion. […] We will carry out a high throughout screen to identify inhibitors of the interaction between ERG and DNA using a fluorescence polarization (FP) assay with a His-tagged ERG Ets domain and fluorescently-labeled DNA probes to develop small molecule inhibitors of this interaction as probes to test this hypothesis and lay the groundwork for the development of targeted therapies against ERG. This is the confirmation against the cherry picks in theprimary screening assay. NIH Molecular Libraries Probe Production Network [MLPCN] NIH Chemical Genomics Center [NCGC] Grant: NS066464 PI Name: John Bushweller, University of Virgina
1.5 ul of protein solution (1 uM ERG domain in 300mM KCl, 50mM Tris-HCl, 1mM EDTA, 1mM DTT, pH 7.5); 20 nl Control plate and compound library plate; 1.5 ul mixture of 5 nM Fluorescein-DNA and 100nM Texas-615-DNA solution in same buffer as above solution; measure fluorescence polarization sequentially for fluorescein (Excitation = 480 nm, Emission = 535s, 535p nm) and Texas red (Excitation = 555 nm, Emission = 632s, 632p nm).
In general terms: qHTS replaces the single test concentration by a dilution series.
As for `O=C(Nc1ccc(NS(=O)(=O)c2ccc([N+](=O)[O-])cc2)cc1)c1ccco1`, the activity change, negative = inhibition is inactive: 6.22%.
Consider `CC(C)CCNC(=O)c1ccc2c(SCC(=O)O)c3c(nc2c1)CCCC3`, for which the activity change, negative = inhibition is inactive: -1.3%.
With `Cn1c(CNC(=O)CNC(=O)c2ccc(C(C)(C)C)cc2)cc(=O)n(C)c1=O`, the activity change, negative = inhibition is inactive: -3.56%.
In the case of `CCCC1OC23CCCCC2C(C#N)(C#N)C1(C#N)C(=N)O3` (centres undefined), the activity change, negative = inhibition was inactive: 1.67%.
On to `Cc1c(-c2ccccc2)oc2c(C(=O)N3CCN(c4ccc([N+](=O)[O-])cc4)CC3)cccc2c1=O`, for which the activity change, negative = inhibition was inactive: 2.34%.
In the case of `Cc1ccc(S(=O)(=O)NC2(C(F)(F)F)C(=O)Nc3c2c(=O)[nH]c(=O)n3-c2ccccc2)cc1` (centres undefined), the activity change, negative = inhibition was inactive: -3.48%.
For the compound `COc1cc(/C=C2/S/C(=N/S(=O)(=O)c3ccccc3)NC2=O)c([N+](=O)[O-])cc1OC`, the activity change, negative = inhibition is inactive: 4.79%.
For the compound `Cc1ccc(NC(=O)COC(=O)CCc2ccccc2)cc1S(=O)(=O)N1CCOCC1`, the activity change, negative = inhibition is inactive: -14.1%.
Under `C/C(=N\NC(=O)c1cc(-c2ccc(Cl)s2)[nH]n1)c1ccncc1` stands inactive: -0.876%; under `COc1ccc(-c2nc3ccccc3c(=O)[nH]2)cc1`, inactive: 1.78%; under `COc1ccc(CNC(=O)c2cccnc2SC)cc1OC`, inactive: -8.6%.
Consider `CN(C)CCOc1cccc(Br)c1`, for which the activity change, negative = inhibition was inactive: 5.57%.
On to `CC[C@]12c3[nH]c4ccccc4c3CCN1C(=O)C(CC(=O)NCc1cccc(C(F)(F)F)c1)C[C@@H]2C(=O)N1CCN(C(=O)C2CC2)CC1` (some centres undefined), for which the activity change, negative = inhibition was inactive: 5.37%.
With `Cc1onc(C(=O)NCc2ccccn2)c1[N+](=O)[O-]`, the activity change, negative = inhibition was inactive: 5.66%.
Take `CCc1ccc2oc(C(=O)NCC(c3ccc(Cl)cc3)N3CCOCC3)c(C)c2c1` (centres undefined): the activity change, negative = inhibition was inactive: -17.9%.
With `S=C(NCc1ccco1)N1CCN(c2ccccn2)CC1` the figure was inactive: 7.18%; with `COc1ccc(CCNC(=O)Cn2cc(C(F)(F)F)cc(Cl)c2=O)cc1`, inactive: 2.42%.
`Cc1ccc(C)c(NC(=O)Cn2cnc3c(oc4ccccc43)c2=O)c1`: the activity change, negative = inhibition is inactive: 2.46%.
With `O=C(COC(=O)c1ccc(Cl)cc1[N+](=O)[O-])NCc1ccco1`, the activity change, negative = inhibition is inactive: -4.87%.
For the compound `CC1CC(C)CN(CCCSc2ccccc2)C1` (centres undefined), the activity change, negative = inhibition is inactive: 3.95%.
In the case of `Cc1nccc2oc(=O)c(NC(=O)c3ccc(Cl)cc3)cc12`, the activity change, negative = inhibition was inactive: -5.79%.
Take `O=C(N/N=C/c1c[nH]c2ccccc12)c1ccc(Br)cc1`: the activity change, negative = inhibition was inactive: -22.3%.
For the compound `Cc1ccccc1OCc1nc(-c2ccc(NC(=O)c3ccc4c(c3)OCO4)cc2)no1`, the activity change, negative = inhibition was inactive: 10.3%.
With `CCC(CC)COC(=O)C(C#N)c1nc2ccccc2nc1N1CCN(CC)CC1` (centres undefined), the activity change, negative = inhibition is inactive: -11.9%.
